Data published in the supplement of paper PMC3334620.
The full ranking holds about 33,000 sequences; the median of “E-score (-0.5 to 0.5)” is about -0.0014, and the highest 2% start at about 0.25. The list shows a part of the results.

Target: T1, Cad1 (UniProt P24813)
T1 sequence: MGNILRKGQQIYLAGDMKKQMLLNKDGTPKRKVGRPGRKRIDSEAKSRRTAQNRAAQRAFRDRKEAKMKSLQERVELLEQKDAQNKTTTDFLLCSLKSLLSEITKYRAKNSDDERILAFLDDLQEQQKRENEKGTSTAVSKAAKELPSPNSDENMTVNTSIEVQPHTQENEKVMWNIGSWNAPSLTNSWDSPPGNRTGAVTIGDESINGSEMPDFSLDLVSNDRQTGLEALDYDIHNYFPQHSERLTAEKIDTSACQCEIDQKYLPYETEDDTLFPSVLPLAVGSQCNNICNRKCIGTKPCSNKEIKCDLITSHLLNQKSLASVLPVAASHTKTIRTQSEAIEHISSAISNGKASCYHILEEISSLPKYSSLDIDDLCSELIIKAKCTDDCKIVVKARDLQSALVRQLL
Assay: PBM E-score (8-mer binding enrichment) (E-score (-0.5 to 0.5)); higher = stronger / more preferred TF binding
Conditions: protein concentration: 100 nM; construct: GST-full length
Method: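 Universal 'all 10-mer' protein binding microarrays (Agilent AMADID 015681) probed with GST-tagged S. cerevisiae TFs (full-length or DBD) made by in vitro transcription/translation (PURExpress), about 100-200 nM. Bound TF was detected with fluorescent anti-GST. Each ungapped 8-mer (which stands for itself and its reverse complement) is scored by the PBM enrichment score (E-score), a modified Wilcoxon-Mann-Whitney statistic from -0.5 to +0.5, computed with the Universal PBM Analysis Suite. Scale: above 0.35 generally sequence-specific binding.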

| Sequence | PBM E-score |
| --- | --- |
| CCCGTCTC | -0.183 |
| TCCGAGGA | 0.105 |
| CCGGTCCG | -0.104 |
| ATGAGATA | 0.218 |
| GGACTTAC | -0.047 |
| AGAGGCAT | -0.0737 |
| AGACATAC | -0.0253 |
| CCAGCAAC | -0.0725 |
| CGGATTTA | 0.12 |
| AATTTAGG | 0.195 |
| ACGGCGAC | -0.0568 |
| ATGCATCG | 0.114 |
| AAAGAGAC | 0.0946 |
| AGCGTCCG | -0.00766 |
| AGTGTGAA | 0.11 |
| GAATGTTA | 0.181 |
| GACAACTA | 0.0404 |
| ATCGTAGC | 0.0921 |
| ACTCCGGC | -0.00802 |
| GATGCTAA | 0.102 |
| AAGCATAA | 0.0493 |
| CGTGGTAC | -0.101 |
| TCCATACA | -0.117 |
| AAAAATGG | 0.14 |
| ACCGTGAC | -0.083 |

Given as comma-separated lines: entries from further up.
Sequence,PBM E-score
AAGCATAA,0.0493
CGTGGTAC,-0.101
TCCATACA,-0.117

Next part

| Sequence | PBM E-score |
| --- | --- |
| ACTTGACC | -0.192 |
| AGAAGACA | -0.101 |
| CGGAGCCC | -0.331 |
| CTATAGCA | -0.0148 |
| AGGAGAGC | -0.257 |
| AAGCGTTG | -0.0702 |
| TATTTCCA | 0.027 |
| CCGGGCAG | -0.114 |
| CAGCCGCG | 0.0589 |
| ATACAGTA | -0.00352 |
| CCTCCTGA | -0.257 |
| CTCCGGTC | -0.0739 |
| GAATGGCC | 0.0215 |
| CAGTCGTC | -0.164 |
| CATCGAGC | 0.0476 |
| AGTCCTAG | -0.284 |
| CCTCCGTA | -0.126 |
| GAGTATGC | 0.0723 |
| CATTCAAG | -0.103 |
| CTACTTAA | -0.0817 |
| CAGCGTAG | -0.067 |
| CATGTCGG | -0.0678 |
| AAGGACCG | -0.21 |
| AGCGTCTC | -0.129 |
| GGCTCACA | 0.0204 |

Look-ups from the entries so far.
CCGGTCCG – PBM E-score: -0.104
AGTCCTAG – PBM E-score: -0.284
CTCCGGTC – PBM E-score: -0.0739
CAGCGTAG – PBM E-score: -0.067
CGGAGCCC – PBM E-score: -0.331

(continued)

| Sequence | PBM E-score |
| --- | --- |
| GACACGTA | -0.0821 |
| TACTAGGA | 0.0557 |
| CCAATCGG | -0.157 |
| ACCGAGCC | -0.0302 |
| AGGACACT | -0.195 |
| CGTAAAGC | -0.0788 |
| TAATATCA | 0.167 |
| AGAAAAGC | 0.0297 |
| GACGAGAA | 0.116 |
| GGCGCACA | 0.00969 |
| CCCGGTAG | -0.127 |
| TTGGGAAA | 0.116 |
| CTCATCCA | 0.175 |
| ATCTTACA | 0.202 |
| CGAACTAC | -0.00144 |
| ACTATAAC | 0.0698 |
| CTGAGAGC | -0.174 |
| AGAGGTCC | 0.0104 |
| ACAGTAGC | -0.0431 |
| GATTGCAA | 0.117 |
| AGATGCGC | 0.0158 |
| CGATTCGC | 0.145 |
| GCCGACGA | 0.0989 |
| ACGTAGAC | -0.247 |
| CCAAGAAG | -0.0206 |

| Sequence | PBM E-score |
| --- | --- |
| CCGCATAA | 0.0761 |
| CGGCACTA | 0.055 |
| CTGACATA | 0.205 |
| ACTATTCG | 0.161 |
| AAATCTTA | 0.0837 |
| CTTTCGTC | -0.0694 |
| AAAGCGGA | 0.0319 |
| CATCCGAA | 0.0882 |
| CGGCCGTC | -0.0442 |
| AGGCGGCG | -0.0441 |
| CACTGCCC | -0.0471 |
| CTTGGAGC | -0.0155 |
| GCACCTCC | -0.224 |
| CATGGAGC | -0.126 |
| GCCGTATA | 0.144 |
| ACTATCCC | -0.261 |
| CGGGTAAG | -0.139 |
| CGTTAAAA | -0.171 |
| AAGAGCGC | 0.0569 |
| ACCCCCGG | -0.355 |
| GGAACACA | 0.0187 |
| GTGCCACA | -0.115 |
| AAAGGTCA | -0.0383 |
| ATGTTGCA | 0.0394 |
| TACAATAA | 0.0949 |

| Sequence | PBM E-score |
| --- | --- |
| GGGACGAC | -0.0177 |
| TACCATAA | 0.043 |
| AGCGACGA | -0.0382 |
| CCTAACCA | 0.0715 |
| AGAGACCG | -0.221 |
| GCCCAATA | 0.0133 |
| ATTGTCAC | 0.0726 |
| CCCCGCTA | -0.00641 |
| GGTCGTTA | 0.157 |
| GGGTAGCA | -0.169 |
| TCACCAGA | -0.171 |
| AGATTGCA | -0.00032 |
| CGTAGATA | 0.113 |
| CCGGGCAA | -0.0535 |
| ATATAATG | 0.0839 |
| ACTGTGGG | -0.092 |
| CACCAGTC | -0.215 |
| ATCGTAGG | -0.034 |
| GCGACACA | 0.0376 |
| GTGTCGCA | -0.124 |
| GGGAGACA | -0.158 |
| AATGTGCC | 0.0719 |
| GCGTTACC | -0.123 |
| CCGCGAGC | -0.111 |
| CGAGTGAC | -0.14 |

| Sequence | PBM E-score |
| --- | --- |
| CCCGCGTC | 0.0369 |
| GAGTAGCC | -0.0672 |
| TCCTTTAA | -0.0326 |
| CGCGGATC | 0.0644 |
| CGCACAGC | -0.03 |
| AACGGTAT | -0.0147 |
| CCTGCATA | -0.0704 |
| CCCAGTAC | -0.195 |
| AGGACTTA | -0.194 |
| GCCCCTCC | -0.187 |
| AATGGGTA | 0.0585 |
| GTGATCAC | 0.0299 |
| ATGGGGAA | 0.0647 |
| AATCGACC | -0.051 |
| AGTTCCCC | -0.0555 |
| AAGTAAGG | 0.0078 |
| AAAGCATC | 0.0361 |
| TACTCGAA | -0.176 |
| GGTAAACA | 0.124 |
| AGCTGAAC | 0.0037 |
| AAATCTGG | 0.116 |
| AAGGGGGC | -0.368 |
| AGTGAAGC | -0.0117 |
| GCTTCGAA | 0.0485 |
| ATATGTGG | 0.0229 |

| Sequence | PBM E-score |
| --- | --- |
| CTGCGCGA | 0.13 |
| AGACAACT | 0.163 |
| AATTCGGC | -0.0493 |
| GCCTTTAA | -0.0797 |
| GAGAGAGA | -0.0445 |
| CGTCATAC | 0.199 |
| ACTTTGCT | -0.0301 |
| CGGGTTAC | -0.00029 |
| GCTGCAGC | 0.115 |
| TAAGGTAA | 0.0771 |
| GCGGATTA | 0.182 |
| CGCTAGAG | -0.115 |
| AACGGATC | 0.217 |
| CGATTAGC | 0.102 |
| ATCATTCA | 0.173 |
| GAGGTGTA | -0.242 |
| CAAGGGTG | 0.0306 |
| ACCCCTTA | -0.118 |
| GGAACGAA | -0.0806 |
| GTGTAAGA | -0.0847 |
| CTAGAGAG | -0.295 |
| CTACCGTC | -0.0743 |
